Patent US5358951A, “Angiotensin II receptor blocking 2, 3, 6 substituted quinazolinones” (American Cyanamid Company, priority 1993, dated 1994)
Several values for one entry are separate records, joined by “and”; a condition that tells them apart may be missing. Equal values may be shown once. Where a name gives a salt, the structure may show the parent alone. The name of at least one read-out is uncertain.

System: vasopressor response of angiotensin II
Assay: AII Challenge: antagonism of angiotensin II vasopressor response;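 also: post-dose Angiotensin II-evoked rise in systolic blood pressure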
Format: in vivo
Excerpt: Conscious Male Okamoto-Aoki SHR, 16-20 weeks old, weighing approximately 330 g are purchased from Charles River Labs (Wilmington, Mass.). Conscious rats are restrained in a supine position with elastic tape. The area at the base of the tail is locally anesthetized by subcutaneous infiltration with 2% procaine. The ventral caudal artery and vein are isolated, and a cannula made of polyethylene (PE) 10-20 tubing (fused together by heat) is passed into the lower abdominal aorta and vena cava, respectively. The cannula is secured, heparinized (1,000 I.U./ml), sealed and the wound is closed. The animals are placed in plastic restraining cages in an upright position. The cannula is attached to a Statham P23 Db pressure transducer, and pulsatile blood pressure is recorded to 10-15 minutes with a Gould Brush recorder. (Chan et al., (Drug Development Res., 18:75-94, 1989). Angiotensin II (human sequence, Sigma Chem. Co., St. Louis, Mo.) of 0.05 and 0.1 ug/kg i.v. is injected into all rats (predosing response). Then a test compound, vehicle or a known angiotensin II antagonist is administered i.v., i.p. or orally to each set of rats. The two doses of angiotensin II are given to each rat again at 30, 60, 90, 120, 180, 240 and 300 minutes post dosing the compound or vehicle. The vasopressor response of angiotensin II is measured for the increase in systolic blood pressure in mmHg. The percentage of antagonism or blockade of the vasopressor response of angiotensin II by a compound is calculated using the vasopressor response (increase in systolic blood pressure) of angiotensin II of each rat predosing the compound as 100%.

SMILES: CCCCc1nc2ccc([C@@]3(C)C[C@@H]4CCCN4O3)cc2c(=O)n1Cc1ccc(-c2ccccc2-c2nnn[nH]2)cc1 (relative stereo) [Example 58, Cis-(+/-)-2-Butyl-6-(hexahydro-2-methylpyrrolo[1,2-1,2-b]isoxazol-2-yl) -3-[[2'-(1H-tetrazol-5-yl) [1,1'-biphenyl]-4-yl]methyl]-4(3H)-quinazolinone]
- Response Average Change (1 mg/kg P.O., AII 0.05 mcg/kg IV, 30 min post dose): 16 mmHg and 11 mmHg
- Response Average Change (1 mg/kg P.O., AII 0.1 mcg/kg IV, 30 min post dose): 26 mmHg and 18.5 mmHg
- Response Average Change (3 mg/kg P.O., AII 0.05 mcg/kg IV, 30 min post dose): 7.5 mmHg and 5 mmHg
- Response Average Change (3 mg/kg P.O., AII 0.05 mcg/kg IV, 90 min post dose): 7.5 mmHg and 6 mmHg
- Response Average Change (3 mg/kg P.O., AII 0.05 mcg/kg IV, 120 min post dose): 10 mmHg and 6 mmHg
- Response Average Change (3 mg/kg P.O., AII 0.05 mcg/kg IV, 300 min post dose): 13 mmHg and 7.5 mmHg
- Response Average Change (3 mg/kg P.O., AII 0.1 mcg/kg IV, 60 min post dose): 13 mmHg and 10 mmHg
- Response Average Change (3 mg/kg P.O., AII 0.1 mcg/kg IV, 180 min post dose): 10 mmHg and 8 mmHg
- Response Average Change (3 mg/kg P.O., AII 0.1 mcg/kg IV, 240 min post dose): 17.5 mmHg and 11 mmHg
- Response Average Change (5 mg/kg P.O., AII 0.05 mcg/kg IV, 30 min post dose): 4 mmHg and 6 mmHg
- Response Average Change (5 mg/kg P.O., AII 0.05 mcg/kg IV, 90 min post dose): 5 mmHg and 5.5 mmHg
- Response Average Change (5 mg/kg P.O., AII 0.05 mcg/kg IV, 240 min post dose): 3 mmHg and 2.5 mmHg
- Response Average Change (5 mg/kg P.O., AII 0.1 mcg/kg IV, 180 min post dose): 5 mmHg and 4 mmHg
- Response Average Change (5 mg/kg P.O., AII 0.1 mcg/kg IV, 240 min post dose): 2.5 mmHg and 5 mmHg
- Response Average Change (5 mg/kg P.O., AII 0.1 mcg/kg IV, 300 min post dose): 7.5 mmHg and 9.5 mmHg

SMILES: CCCCc1nc2ccc([C@@H]3C[C@H]4CCCCN4O3)cc2c(=O)n1Cc1ccc(-c2ccccc2-c2nnn[nH]2)cc1 (relative stereo) [Example 60, (Cis)-2-Butyl-6-(hexahydro-2H-isoxazolo[2,3-a]pyridin-2-yl)-3-[[2'-(1H-tetrazol-5-yl)-[1,1'-biphenyl]-4-yl]methyl]-4(3H)-quinazolinone]
- Response Average Change (3 mg/kg I.V., AII 0.05 mcg/kg IV, 60 min post dose): 10 mmHg and 5 mmHg
- Response Average Change (3 mg/kg I.V., AII 0.05 mcg/kg IV, 120 min post dose): 10 mmHg and 15 mmHg
- Response Average Change (3 mg/kg I.V., AII 0.1 mcg/kg IV, 60 min post dose): 8.5 mmHg and 6.5 mmHg
- Response Average Change (3 mg/kg I.V., AII 0.1 mcg/kg IV, 120 min post dose): 17.5 mmHg and 12.5 mmHg
- Response Average Change (3 mg/kg I.V., AII 0.1 mcg/kg IV, 180 min post dose): 22.5 mmHg and 23.5 mmHg

SMILES: CCCCc1nc2ccc([C@@]3(C)C[C@@H]4CCCN4O3)cc2c(=O)n1Cc1ccc(-c2ccccc2-c2nnn[nH]2)cc1 (relative stereo) [Example 73, Cis-2-Butyl-6-(hexahydro-2-methylpyrrolo[1,2-b]isoxazol-2-yl)-3-[[2'-(1H-(tetrazol-5-yl)[1,1'-biphenyl-4-yl]methyl]-4(3H)-quinazolinone sodium salt]
- Response Average Change (0.1 mg/kg i.v., AII 0.05 mcg/kg IV, 60 min post dose, sodium salt): 20.0 mmHg and 17.5 mmHg and 25 mmHg
- Response Average Change (0.1 mg/kg i.v., AII 0.05 mcg/kg IV, 90 min post dose, sodium salt): 20.0 mmHg and 30 mmHg and 15 mmHg
- Response Average Change (0.1 mg/kg i.v., AII 0.05 mcg/kg IV, 120 min post dose, sodium salt): 28.3 mmHg and 35 mmHg and 22.5 mmHg
- Response Average Change (0.1 mg/kg i.v., AII 0.05 mcg/kg IV, 180 min post dose, sodium salt): 36.7 mmHg and 25 mmHg and 27.5 mmHg
- Response Average Change (0.1 mg/kg i.v., AII 0.05 mcg/kg IV, 240 min post dose, sodium salt): 36.7 mmHg and 25 mmHg and 22.5 mmHg
- Response Average Change (0.1 mg/kg i.v., AII 0.05 mcg/kg IV, 300 min post dose, sodium salt): 30 mmHg and 42.5 mmHg and 25 mmHg
- Response Average Change (0.1 mg/kg i.v., AII 0.1 mcg/kg IV, 30 min post dose, sodium salt): 21.7 mmHg and 30 mmHg and 20 mmHg
- Response Average Change (0.1 mg/kg i.v., AII 0.1 mcg/kg IV, 60 min post dose, sodium salt): 25 mmHg and 35 mmHg and 22.5 mmHg
- Response Average Change (0.1 mg/kg i.v., AII 0.1 mcg/kg IV, 90 min post dose, sodium salt): 30.0 mmHg and 37.5 mmHg and 22.5 mmHg
- Response Average Change (0.1 mg/kg i.v., AII 0.1 mcg/kg IV, 120 min post dose, sodium salt): 32.3 mmHg and 40 mmHg and 30 mmHg
- Response Average Change (0.1 mg/kg i.v., AII 0.1 mcg/kg IV, 180 min post dose, sodium salt): 33.5 mmHg and 40 mmHg and 32.5 mmHg
- Response Average Change (0.1 mg/kg i.v., AII 0.1 mcg/kg IV, 300 min post dose, sodium salt): 40 mmHg and 32.5 mmHg and 25 mmHg
- Response Average Change (0.3 mg/kg i.v., AII 0.05 mcg/kg IV, 90 min post dose, sodium salt): 19.0 mmHg and 17.5 mmHg and 20 mmHg
- Response Average Change (0.3 mg/kg i.v., AII 0.05 mcg/kg IV, 120 min post dose, sodium salt): 21.7 mmHg and 17.5 mmHg and 20 mmHg
- Response Average Change (0.3 mg/kg i.v., AII 0.05 mcg/kg IV, 180 min post dose, sodium salt): 23.3 mmHg and 22.5 mmHg and 29 mmHg
- Response Average Change (0.3 mg/kg i.v., AII 0.05 mcg/kg IV, 240 min post dose, sodium salt): 28.3 mmHg and 22.5 mmHg and 27.5 mmHg
- Response Average Change (0.3 mg/kg i.v., AII 0.05 mcg/kg IV, 300 min post dose, sodium salt): 28.3 mmHg and 15 mmHg and 20 mmHg
- Response Average Change (0.3 mg/kg i.v., AII 0.1 mcg/kg IV, 30 min post dose, sodium salt): 23.3 mmHg and 16.5 mmHg and 15 mmHg
- Response Average Change (0.3 mg/kg i.v., AII 0.1 mcg/kg IV, 60 min post dose, sodium salt): 30 mmHg and 27.5 mmHg
- Response Average Change (0.3 mg/kg i.v., AII 0.1 mcg/kg IV, 90 min post dose, sodium salt): 21.7 mmHg and 20 mmHg and 25 mmHg
- Response Average Change (0.3 mg/kg i.v., AII 0.1 mcg/kg IV, 120 min post dose, sodium salt): 25.0 mmHg and 22.5 mmHg and 30 mmHg
- Response Average Change (0.3 mg/kg i.v., AII 0.1 mcg/kg IV, 180 min post dose, sodium salt): 26.7 mmHg and 30 mmHg and 35 mmHg
- Response Average Change (0.5 mg/kg i.v., AII 0.05 mcg/kg IV, 30 min post dose, sodium salt): 10 mmHg and 7.5 mmHg
- Response Average Change (0.5 mg/kg i.v., AII 0.05 mcg/kg IV, 60 min post dose, sodium salt): 11 mmHg and 12.5 mmHg and 10 mmHg
- Response Average Change (0.5 mg/kg i.v., AII 0.1 mcg/kg IV, 30 min post dose, sodium salt): 15 mmHg and 17.5 mmHg and 17 mmHg and 10 mmHg
- Response Average Change (0.5 mg/kg i.v., AII 0.1 mcg/kg IV, 90 min post dose, sodium salt): 22.5 mmHg and 15 mmHg and 17.5 mmHg
- Response Average Change (0.5 mg/kg i.v., AII 0.1 mcg/kg IV, 120 min post dose, sodium salt): 30 mmHg and 17.5 mmHg and 22.5 mmHg and 27.5 mmHg
- Response Average Change (0.5 mg/kg i.v., AII 0.1 mcg/kg IV, 180 min post dose, sodium salt): 30.5 mmHg and 25 mmHg and 17.5 mmHg
- Response Average Change (0.5 mg/kg i.v., AII 0.1 mcg/kg IV, 240 min post dose, sodium salt): 27.5 mmHg and 22.5 mmHg and 25 mmHg
- Response Average Change (1 mg/kg i.v., AII 0.05 mcg/kg IV, 30 min post dose, sodium salt): 7.5 mmHg and 10 mmHg
- Response Average Change (1 mg/kg i.v., AII 0.05 mcg/kg IV, 60 min post dose, sodium salt): 7.5 mmHg and 6.7 mmHg
- Response Average Change (1 mg/kg i.v., AII 0.05 mcg/kg IV, 90 min post dose, sodium salt): 7.5 mmHg and 14.3 mmHg
- Response Average Change (1 mg/kg i.v., AII 0.05 mcg/kg IV, 120 min post dose, sodium salt): 7.5 mmHg and 9.3 mmHg
- Response Average Change (1 mg/kg i.v., AII 0.05 mcg/kg IV, 180 min post dose, sodium salt): 12.5 mmHg and 16.7 mmHg
- Response Average Change (1 mg/kg i.v., AII 0.05 mcg/kg IV, 240 min post dose, sodium salt): 27.5 mmHg and 15.7 mmHg
- Response Average Change (1 mg/kg i.v., AII 0.05 mcg/kg IV, 300 min post dose, sodium salt): 22.5 mmHg and 25 mmHg
- Response Average Change (1 mg/kg i.v., AII 0.1 mcg/kg IV, 60 min post dose, sodium salt): 16.5 mmHg and 10 mmHg
- Response Average Change (1 mg/kg i.v., AII 0.1 mcg/kg IV, 90 min post dose, sodium salt): 10 mmHg and 12.3 mmHg
- Response Average Change (1 mg/kg i.v., AII 0.1 mcg/kg IV, 180 min post dose, sodium salt): 27.5 mmHg and 20.0 mmHg
- Response Average Change (1 mg/kg i.v., AII 0.1 mcg/kg IV, 240 min post dose, sodium salt): 12.5 mmHg and 16.7 mmHg
- Response Average Change (1 mg/kg i.v., AII 0.1 mcg/kg IV, 300 min post dose, sodium salt): 19 mmHg and 20 mmHg
